# From the supplement of paper PMC6411743
# Sequences of proteins named here, by UniProt entry; tags and fusion partners are left off. A change or cut given only in a name is not applied to a line headed by its entry.
# UniProt Q8N0Z6: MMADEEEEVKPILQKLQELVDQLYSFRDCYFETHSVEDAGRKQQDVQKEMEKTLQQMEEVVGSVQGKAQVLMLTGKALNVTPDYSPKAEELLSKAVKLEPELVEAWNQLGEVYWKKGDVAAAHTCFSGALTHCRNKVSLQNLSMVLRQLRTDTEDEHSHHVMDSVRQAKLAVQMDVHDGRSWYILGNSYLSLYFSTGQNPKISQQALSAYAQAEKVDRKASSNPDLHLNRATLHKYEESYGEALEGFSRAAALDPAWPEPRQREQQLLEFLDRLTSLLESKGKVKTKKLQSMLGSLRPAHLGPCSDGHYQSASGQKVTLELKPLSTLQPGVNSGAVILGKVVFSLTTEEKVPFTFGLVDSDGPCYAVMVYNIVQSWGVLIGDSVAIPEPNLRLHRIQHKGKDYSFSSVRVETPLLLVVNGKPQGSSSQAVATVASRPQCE
# UniProt Q8IZ83: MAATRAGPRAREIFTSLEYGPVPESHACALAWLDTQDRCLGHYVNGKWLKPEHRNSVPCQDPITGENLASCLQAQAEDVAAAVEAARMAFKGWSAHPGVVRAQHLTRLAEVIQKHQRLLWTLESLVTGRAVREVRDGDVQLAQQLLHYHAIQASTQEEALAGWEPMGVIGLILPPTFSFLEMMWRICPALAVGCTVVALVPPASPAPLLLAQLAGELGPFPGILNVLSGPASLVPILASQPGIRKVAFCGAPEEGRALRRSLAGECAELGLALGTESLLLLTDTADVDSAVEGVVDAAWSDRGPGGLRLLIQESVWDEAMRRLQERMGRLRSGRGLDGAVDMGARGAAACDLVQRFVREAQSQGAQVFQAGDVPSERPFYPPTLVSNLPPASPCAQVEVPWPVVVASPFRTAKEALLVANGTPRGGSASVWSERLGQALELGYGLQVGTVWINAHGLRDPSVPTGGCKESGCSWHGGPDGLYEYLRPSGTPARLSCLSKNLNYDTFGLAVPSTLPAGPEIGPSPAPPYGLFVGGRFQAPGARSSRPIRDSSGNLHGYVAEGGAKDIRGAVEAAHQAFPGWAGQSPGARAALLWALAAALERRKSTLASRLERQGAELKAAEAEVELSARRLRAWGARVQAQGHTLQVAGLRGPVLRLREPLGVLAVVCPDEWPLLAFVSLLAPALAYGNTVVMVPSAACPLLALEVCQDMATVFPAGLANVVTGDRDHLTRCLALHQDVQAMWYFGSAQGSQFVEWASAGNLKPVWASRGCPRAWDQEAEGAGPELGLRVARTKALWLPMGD
# UniProt Q8IWB1: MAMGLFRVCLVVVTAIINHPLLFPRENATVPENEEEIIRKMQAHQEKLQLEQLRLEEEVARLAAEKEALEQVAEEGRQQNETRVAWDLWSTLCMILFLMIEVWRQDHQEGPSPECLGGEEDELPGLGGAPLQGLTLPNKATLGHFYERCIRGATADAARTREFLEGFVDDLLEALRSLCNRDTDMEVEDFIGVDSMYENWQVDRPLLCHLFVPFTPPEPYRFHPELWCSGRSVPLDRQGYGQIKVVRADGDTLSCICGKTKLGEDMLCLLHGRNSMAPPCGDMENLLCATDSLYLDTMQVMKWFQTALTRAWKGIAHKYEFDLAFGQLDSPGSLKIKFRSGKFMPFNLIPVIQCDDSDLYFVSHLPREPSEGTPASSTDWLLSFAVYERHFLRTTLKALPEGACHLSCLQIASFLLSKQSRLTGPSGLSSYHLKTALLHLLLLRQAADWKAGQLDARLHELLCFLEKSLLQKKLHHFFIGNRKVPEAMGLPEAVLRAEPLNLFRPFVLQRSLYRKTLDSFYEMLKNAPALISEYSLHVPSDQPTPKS
# UniProt Q8IW45: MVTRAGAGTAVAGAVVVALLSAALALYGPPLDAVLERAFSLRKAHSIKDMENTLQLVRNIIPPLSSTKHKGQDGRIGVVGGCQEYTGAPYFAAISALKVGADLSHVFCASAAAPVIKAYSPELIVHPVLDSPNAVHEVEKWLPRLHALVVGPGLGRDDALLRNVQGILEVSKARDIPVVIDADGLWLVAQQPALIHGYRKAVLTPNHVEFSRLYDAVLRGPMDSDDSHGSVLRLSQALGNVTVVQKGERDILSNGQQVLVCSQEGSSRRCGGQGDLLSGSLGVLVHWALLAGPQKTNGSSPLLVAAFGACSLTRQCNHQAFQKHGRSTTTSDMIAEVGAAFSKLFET
# UniProt Q8N5C7: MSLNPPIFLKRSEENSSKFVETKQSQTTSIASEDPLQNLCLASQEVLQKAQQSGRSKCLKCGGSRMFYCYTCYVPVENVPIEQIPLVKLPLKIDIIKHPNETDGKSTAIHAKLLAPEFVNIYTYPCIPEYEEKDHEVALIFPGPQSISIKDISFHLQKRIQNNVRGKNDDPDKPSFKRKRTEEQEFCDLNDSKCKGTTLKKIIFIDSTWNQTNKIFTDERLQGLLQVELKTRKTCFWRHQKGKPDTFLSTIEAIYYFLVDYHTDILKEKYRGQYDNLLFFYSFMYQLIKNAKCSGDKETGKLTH
# UniProt Q86WV1: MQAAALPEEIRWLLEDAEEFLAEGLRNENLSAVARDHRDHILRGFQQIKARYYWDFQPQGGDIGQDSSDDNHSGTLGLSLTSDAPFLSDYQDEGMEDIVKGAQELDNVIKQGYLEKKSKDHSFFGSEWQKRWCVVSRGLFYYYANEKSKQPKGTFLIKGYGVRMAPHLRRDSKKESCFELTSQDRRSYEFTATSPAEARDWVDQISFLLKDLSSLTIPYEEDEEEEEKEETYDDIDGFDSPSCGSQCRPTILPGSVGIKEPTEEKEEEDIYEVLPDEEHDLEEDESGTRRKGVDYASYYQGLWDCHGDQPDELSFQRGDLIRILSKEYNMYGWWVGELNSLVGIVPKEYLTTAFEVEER
# UniProt Q8IW35: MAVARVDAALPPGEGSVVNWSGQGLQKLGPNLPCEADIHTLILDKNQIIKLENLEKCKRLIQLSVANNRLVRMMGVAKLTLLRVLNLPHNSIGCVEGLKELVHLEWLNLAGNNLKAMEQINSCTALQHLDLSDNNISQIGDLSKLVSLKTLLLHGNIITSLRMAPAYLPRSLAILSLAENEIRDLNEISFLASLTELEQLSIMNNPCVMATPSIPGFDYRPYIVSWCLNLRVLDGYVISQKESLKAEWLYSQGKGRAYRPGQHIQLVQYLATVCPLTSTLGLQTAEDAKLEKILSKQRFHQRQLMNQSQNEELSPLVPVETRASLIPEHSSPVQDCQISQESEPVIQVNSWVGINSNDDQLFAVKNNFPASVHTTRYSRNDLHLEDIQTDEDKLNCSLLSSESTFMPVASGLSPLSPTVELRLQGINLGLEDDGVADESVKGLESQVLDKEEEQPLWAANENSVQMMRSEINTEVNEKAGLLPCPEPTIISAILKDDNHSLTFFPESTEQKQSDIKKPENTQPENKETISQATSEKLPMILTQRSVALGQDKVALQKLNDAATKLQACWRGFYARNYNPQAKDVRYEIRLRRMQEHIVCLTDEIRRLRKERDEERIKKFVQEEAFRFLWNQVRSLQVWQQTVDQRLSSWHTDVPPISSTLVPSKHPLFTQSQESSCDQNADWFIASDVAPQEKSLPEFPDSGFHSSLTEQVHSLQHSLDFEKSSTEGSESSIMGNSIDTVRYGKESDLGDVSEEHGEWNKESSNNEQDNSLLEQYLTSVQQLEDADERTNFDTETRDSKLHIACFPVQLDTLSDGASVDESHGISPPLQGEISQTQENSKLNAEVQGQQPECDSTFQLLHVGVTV
# UniProt Q8NEZ2: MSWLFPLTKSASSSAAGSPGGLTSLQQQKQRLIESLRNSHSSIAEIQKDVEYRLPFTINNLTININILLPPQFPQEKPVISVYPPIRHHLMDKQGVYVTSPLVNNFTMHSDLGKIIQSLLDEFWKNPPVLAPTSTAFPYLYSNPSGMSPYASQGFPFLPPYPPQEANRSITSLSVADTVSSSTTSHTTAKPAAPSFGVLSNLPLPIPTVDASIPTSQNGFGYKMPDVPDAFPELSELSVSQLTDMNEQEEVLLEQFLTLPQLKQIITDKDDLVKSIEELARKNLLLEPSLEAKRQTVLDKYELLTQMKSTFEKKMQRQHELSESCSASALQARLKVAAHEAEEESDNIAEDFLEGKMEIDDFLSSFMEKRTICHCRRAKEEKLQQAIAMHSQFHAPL
# UniProt Q8NHG8: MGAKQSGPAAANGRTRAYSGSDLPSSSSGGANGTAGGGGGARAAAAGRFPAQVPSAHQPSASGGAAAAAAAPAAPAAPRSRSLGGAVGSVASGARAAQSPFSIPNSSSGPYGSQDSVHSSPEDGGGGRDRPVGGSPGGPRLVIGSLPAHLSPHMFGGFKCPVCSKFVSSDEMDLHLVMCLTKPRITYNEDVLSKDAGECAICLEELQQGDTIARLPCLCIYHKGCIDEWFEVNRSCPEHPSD
# UniProt Q8TBX8: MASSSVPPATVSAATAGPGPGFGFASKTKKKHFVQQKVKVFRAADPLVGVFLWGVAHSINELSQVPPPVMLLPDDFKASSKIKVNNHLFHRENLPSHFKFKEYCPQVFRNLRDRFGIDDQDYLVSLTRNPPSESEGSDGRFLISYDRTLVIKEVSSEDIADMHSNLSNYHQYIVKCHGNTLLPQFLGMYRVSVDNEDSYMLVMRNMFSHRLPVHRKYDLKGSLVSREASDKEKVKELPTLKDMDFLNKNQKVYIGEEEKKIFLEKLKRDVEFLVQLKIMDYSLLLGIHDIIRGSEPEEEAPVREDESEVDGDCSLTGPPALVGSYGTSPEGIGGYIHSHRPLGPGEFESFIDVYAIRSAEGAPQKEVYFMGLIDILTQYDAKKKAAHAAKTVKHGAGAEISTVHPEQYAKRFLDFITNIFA
# UniProt Q8NFH4: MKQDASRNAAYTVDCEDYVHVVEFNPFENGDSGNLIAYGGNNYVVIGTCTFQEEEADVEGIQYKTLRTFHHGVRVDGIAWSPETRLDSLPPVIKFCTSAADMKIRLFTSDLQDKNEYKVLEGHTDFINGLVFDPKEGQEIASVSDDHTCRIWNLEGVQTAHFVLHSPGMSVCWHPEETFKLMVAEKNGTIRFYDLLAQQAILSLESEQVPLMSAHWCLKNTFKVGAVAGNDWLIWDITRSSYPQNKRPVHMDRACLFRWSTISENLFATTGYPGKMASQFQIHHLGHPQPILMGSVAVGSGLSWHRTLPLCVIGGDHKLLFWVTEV
# UniProt Q8IV50: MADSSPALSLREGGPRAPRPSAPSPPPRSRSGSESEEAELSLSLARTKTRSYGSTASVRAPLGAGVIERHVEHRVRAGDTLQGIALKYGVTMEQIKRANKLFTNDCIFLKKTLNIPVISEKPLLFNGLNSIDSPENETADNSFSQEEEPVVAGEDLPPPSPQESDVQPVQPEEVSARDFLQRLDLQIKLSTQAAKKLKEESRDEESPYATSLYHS
# UniProt Q8N6N3: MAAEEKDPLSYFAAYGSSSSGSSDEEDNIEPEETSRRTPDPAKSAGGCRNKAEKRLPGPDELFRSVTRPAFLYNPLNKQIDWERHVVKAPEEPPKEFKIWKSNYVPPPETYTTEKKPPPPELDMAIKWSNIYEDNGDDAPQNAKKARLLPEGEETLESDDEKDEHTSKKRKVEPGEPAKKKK
# UniProt Q8NB90: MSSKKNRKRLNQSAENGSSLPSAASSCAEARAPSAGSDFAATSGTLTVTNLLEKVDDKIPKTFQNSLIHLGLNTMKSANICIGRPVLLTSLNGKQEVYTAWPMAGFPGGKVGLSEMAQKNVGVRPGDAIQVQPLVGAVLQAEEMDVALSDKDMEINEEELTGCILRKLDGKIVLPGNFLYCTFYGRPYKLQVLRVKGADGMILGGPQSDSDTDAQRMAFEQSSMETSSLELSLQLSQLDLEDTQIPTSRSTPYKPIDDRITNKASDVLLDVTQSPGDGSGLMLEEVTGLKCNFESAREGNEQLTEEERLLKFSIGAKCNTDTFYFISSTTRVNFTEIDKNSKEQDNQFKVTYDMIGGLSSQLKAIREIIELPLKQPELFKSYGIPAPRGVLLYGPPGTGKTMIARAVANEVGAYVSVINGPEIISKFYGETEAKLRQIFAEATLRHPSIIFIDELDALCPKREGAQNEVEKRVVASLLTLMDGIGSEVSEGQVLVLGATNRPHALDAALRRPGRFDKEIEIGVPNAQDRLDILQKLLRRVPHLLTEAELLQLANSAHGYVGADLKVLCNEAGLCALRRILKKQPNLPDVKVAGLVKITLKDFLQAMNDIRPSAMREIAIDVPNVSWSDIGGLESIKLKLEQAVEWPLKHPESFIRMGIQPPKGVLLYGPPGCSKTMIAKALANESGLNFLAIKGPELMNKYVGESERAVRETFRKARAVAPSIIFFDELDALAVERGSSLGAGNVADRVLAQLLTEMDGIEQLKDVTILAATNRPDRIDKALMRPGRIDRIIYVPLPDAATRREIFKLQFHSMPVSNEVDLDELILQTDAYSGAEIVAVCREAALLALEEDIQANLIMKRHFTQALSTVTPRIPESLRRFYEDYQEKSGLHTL
# ± gives the standard deviation of the averaged measurements. Some of the results follow.
# Compound: Nc1nc2c(ncn2[C@@H]2O[C@H](COP(=O)(O)OP(=O)(O)OP(=O)(O)O)[C@@H](O)[C@H]2O)c(=O)[nH]1 [guanosine triphosphate]
# Test: NP40-soluble protein abundance relative to vehicle (solubility fold change) (ratio); higher = more soluble protein in presence of GTP
# Summary of the method: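 Jurkat crude lysate prepared with a Dounce homogeniser was treated at eight concentrations spanning 0.1 to 10 mM, 10 min at room temperature then 3 min at 37 °C. Solubilisation with 0.8% NP40 and benzonase and ultracentrifugation preceded TMT labelling of the supernatant for LC-MS/MS. Fold change against the detergent-processed vehicle was determined per replicate from vsn-normalised intensities, across three independent experiments.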
target,measurement,setting,value
TTC5 (UniProt Q8N0Z6),NP40-soluble protein abundance,concentration: 0.1mM,0.942 ± 0.096
same,NP40-soluble protein abundance,concentration: 0.5mM,0.991 ± 0.054
same,NP40-soluble protein abundance,concentration: 1mM,0.954 ± 0.084
same,NP40-soluble protein abundance,concentration: 2mM,0.949 ± 0.056
same,NP40-soluble protein abundance,concentration: 4mM,0.946 ± 0.047
same,NP40-soluble protein abundance,concentration: 6mM,0.979 ± 0.075
same,NP40-soluble protein abundance,concentration: 8mM,0.96 ± 0.049
same,NP40-soluble protein abundance,concentration: 10mM,0.979 ± 0.029
ALDH16A1 (UniProt Q8IZ83),NP40-soluble protein abundance,concentration: 0.1mM,1.11 ± 0.033
same,NP40-soluble protein abundance,concentration: 0.5mM,1.1 ± 0.076
same,NP40-soluble protein abundance,concentration: 1mM,1.13 ± 0.13
same,NP40-soluble protein abundance,concentration: 2mM,1.15 ± 0.12
same,NP40-soluble protein abundance,concentration: 4mM,1.16 ± 0.17
same,NP40-soluble protein abundance,concentration: 6mM,1.15 ± 0.15
same,NP40-soluble protein abundance,concentration: 8mM,1.16 ± 0.16
same,NP40-soluble protein abundance,concentration: 10mM,1.11 ± 0.15
ITPRIP (UniProt Q8IWB1),NP40-soluble protein abundance,concentration: 0.1mM,1.06 ± 0.13
same,NP40-soluble protein abundance,concentration: 0.5mM,1.07 ± 0.15
same,NP40-soluble protein abundance,concentration: 1mM,0.992 ± 0.063
same,NP40-soluble protein abundance,concentration: 2mM,1.05 ± 0.17
same,NP40-soluble protein abundance,concentration: 4mM,0.991 ± 0.086
same,NP40-soluble protein abundance,concentration: 6mM,1.02 ± 0.14
same,NP40-soluble protein abundance,concentration: 8mM,0.958 ± 0.12
same,NP40-soluble protein abundance,concentration: 10mM,0.95 ± 0.1
UniProt Q8IW45 and related entries,NP40-soluble protein abundance,concentration: 0.1mM,1.01 ± 0.071
same,NP40-soluble protein abundance,concentration: 0.5mM,0.978 ± 0.074
same,NP40-soluble protein abundance,concentration: 1mM,0.985 ± 0.038
same,NP40-soluble protein abundance,concentration: 2mM,0.945 ± 0.021
same,NP40-soluble protein abundance,concentration: 4mM,0.969 ± 0.013
same,NP40-soluble protein abundance,concentration: 6mM,0.915 ± 0.045
same,NP40-soluble protein abundance,concentration: 8mM,0.954 ± 0.077
same,NP40-soluble protein abundance,concentration: 10mM,0.91 ± 0.035
UniProt Q8NE01 and related entries,NP40-soluble protein abundance,concentration: 0.1mM,1.05 ± 0.048
same,NP40-soluble protein abundance,concentration: 0.5mM,0.991 ± 0.056
same,NP40-soluble protein abundance,concentration: 1mM,0.973 ± 0.028
same,NP40-soluble protein abundance,concentration: 2mM,0.948 ± 0.081
same,NP40-soluble protein abundance,concentration: 4mM,0.965 ± 0.055
same,NP40-soluble protein abundance,concentration: 6mM,0.927 ± 0.076
same,NP40-soluble protein abundance,concentration: 8mM,0.931 ± 0.053
same,NP40-soluble protein abundance,concentration: 10mM,0.896 ± 0.078
UniProt Q8N5C7 and related entries,NP40-soluble protein abundance,concentration: 0.1mM,1.07 ± 0.046
same,NP40-soluble protein abundance,concentration: 0.5mM,1.07 ± 0.03
same,NP40-soluble protein abundance,concentration: 1mM,1.09 ± 0.02
same,NP40-soluble protein abundance,concentration: 2mM,1 ± 0.089
same,NP40-soluble protein abundance,concentration: 4mM,1.01 ± 0.043
same,NP40-soluble protein abundance,concentration: 6mM,0.996 ± 0.048
same,NP40-soluble protein abundance,concentration: 8mM,1.055 ± 0.0044
same,NP40-soluble protein abundance,concentration: 10mM,1.09 ± 0.051
UniProt Q86WV1 and related entries,NP40-soluble protein abundance,concentration: 0.1mM,0.925 ± 0.045
same,NP40-soluble protein abundance,concentration: 0.5mM,1.03 ± 0.063
same,NP40-soluble protein abundance,concentration: 1mM,0.975 ± 0.12
same,NP40-soluble protein abundance,concentration: 2mM,0.978 ± 0.079
same,NP40-soluble protein abundance,concentration: 4mM,0.902 ± 0.1
same,NP40-soluble protein abundance,concentration: 6mM,0.979 ± 0.1
same,NP40-soluble protein abundance,concentration: 8mM,0.934 ± 0.15
same,NP40-soluble protein abundance,concentration: 10mM,0.97 ± 0.052
UniProt Q8IW35 and related entries,NP40-soluble protein abundance,concentration: 0.1mM,1.039 ± 0.0082
same,NP40-soluble protein abundance,concentration: 0.5mM,1.06 ± 0.032
same,NP40-soluble protein abundance,concentration: 1mM,1.09 ± 0.013
same,NP40-soluble protein abundance,concentration: 2mM,1.07 ± 0.059
same,NP40-soluble protein abundance,concentration: 4mM,1.04 ± 0.054
same,NP40-soluble protein abundance,concentration: 6mM,1.06 ± 0.05
same,NP40-soluble protein abundance,concentration: 8mM,1.05 ± 0.077
same,NP40-soluble protein abundance,concentration: 10mM,1.03 ± 0.058
UniProt Q8NEZ2 and related entries,NP40-soluble protein abundance,concentration: 0.1mM,0.941 ± 0.019
same,NP40-soluble protein abundance,concentration: 0.5mM,0.886 ± 0.071
same,NP40-soluble protein abundance,concentration: 1mM,0.985 ± 0.028
same,NP40-soluble protein abundance,concentration: 2mM,0.913 ± 0.13
same,NP40-soluble protein abundance,concentration: 4mM,1.07 ± 0.14
same,NP40-soluble protein abundance,concentration: 6mM,0.949 ± 0.088
same,NP40-soluble protein abundance,concentration: 8mM,1.04 ± 0.14
same,NP40-soluble protein abundance,concentration: 10mM,1.03 ± 0.064
ZNRF2 (UniProt Q8NHG8),NP40-soluble protein abundance,concentration: 0.1mM,0.884 ± 0.11
same,NP40-soluble protein abundance,concentration: 0.5mM,0.799 ± 0.12
same,NP40-soluble protein abundance,concentration: 1mM,0.902 ± 0.12
same,NP40-soluble protein abundance,concentration: 2mM,0.902 ± 0.16
same,NP40-soluble protein abundance,concentration: 4mM,0.924 ± 0.11
same,NP40-soluble protein abundance,concentration: 6mM,0.879 ± 0.13
same,NP40-soluble protein abundance,concentration: 8mM,0.924 ± 0.093
same,NP40-soluble protein abundance,concentration: 10mM,0.952 ± 0.14
UniProt Q8TBX8 and related entries,NP40-soluble protein abundance,concentration: 0.1mM,0.982 ± 0.028
same,NP40-soluble protein abundance,concentration: 0.5mM,1.01 ± 0.028
same,NP40-soluble protein abundance,concentration: 1mM,0.975 ± 0.087
same,NP40-soluble protein abundance,concentration: 2mM,0.985 ± 0.03
same,NP40-soluble protein abundance,concentration: 4mM,0.936 ± 0.064
same,NP40-soluble protein abundance,concentration: 6mM,0.949 ± 0.032
same,NP40-soluble protein abundance,concentration: 8mM,0.929 ± 0.062
same,NP40-soluble protein abundance,concentration: 10mM,0.921 ± 0.03
NUP37 (UniProt Q8NFH4),NP40-soluble protein abundance,concentration: 0.1mM,1.04 ± 0.089
same,NP40-soluble protein abundance,concentration: 0.5mM,1.07 ± 0.17
same,NP40-soluble protein abundance,concentration: 1mM,0.955 ± 0.076
same,NP40-soluble protein abundance,concentration: 2mM,1.02 ± 0.19
same,NP40-soluble protein abundance,concentration: 4mM,1.02 ± 0.12
same,NP40-soluble protein abundance,concentration: 6mM,0.993 ± 0.12
same,NP40-soluble protein abundance,concentration: 8mM,0.914 ± 0.1
same,NP40-soluble protein abundance,concentration: 10mM,0.943 ± 0.13
LYSMD2 (UniProt Q8IV50),NP40-soluble protein abundance,concentration: 0.1mM,1.01 ± 0.064
same,NP40-soluble protein abundance,concentration: 0.5mM,0.968 ± 0.051
same,NP40-soluble protein abundance,concentration: 1mM,0.935 ± 0.054
same,NP40-soluble protein abundance,concentration: 2mM,0.916 ± 0.039
same,NP40-soluble protein abundance,concentration: 4mM,0.896 ± 0.031
same,NP40-soluble protein abundance,concentration: 6mM,0.907 ± 0.055
same,NP40-soluble protein abundance,concentration: 8mM,0.894 ± 0.045
same,NP40-soluble protein abundance,concentration: 10mM,0.913 ± 0.024
UniProt Q8N6N3 and related entries,NP40-soluble protein abundance,concentration: 0.1mM,1.05 ± 0.16
same,NP40-soluble protein abundance,concentration: 0.5mM,1.01 ± 0.035
same,NP40-soluble protein abundance,concentration: 1mM,1.04 ± 0.015
same,NP40-soluble protein abundance,concentration: 2mM,0.998 ± 0.053
same,NP40-soluble protein abundance,concentration: 4mM,0.981 ± 0.11
same,NP40-soluble protein abundance,concentration: 6mM,1.03 ± 0.11
same,NP40-soluble protein abundance,concentration: 8mM,1.04 ± 0.052
same,NP40-soluble protein abundance,concentration: 10mM,1.04 ± 0.024
SPATA5 (UniProt Q8NB90),NP40-soluble protein abundance,concentration: 0.1mM,1.12 ± 0.034
same,NP40-soluble protein abundance,concentration: 0.5mM,1.18 ± 0.065
same,NP40-soluble protein abundance,concentration: 1mM,1.27 ± 0.075
same,NP40-soluble protein abundance,concentration: 2mM,1.44 ± 0.097
same,NP40-soluble protein abundance,concentration: 4mM,1.62 ± 0.11
same,NP40-soluble protein abundance,concentration: 6mM,1.59 ± 0.098
same,NP40-soluble protein abundance,concentration: 8mM,1.63 ± 0.092
same,NP40-soluble protein abundance,concentration: 10mM,1.62 ± 0.1

# A second format for part of the listing above:
target	measurement	setting	value
UniProt Q8IW45 and related entries	NP40-soluble protein abundance	concentration: 0.5mM	0.978 ± 0.074
same	NP40-soluble protein abundance	concentration: 1mM	0.985 ± 0.038
same	NP40-soluble protein abundance	concentration: 2mM	0.945 ± 0.021
same	NP40-soluble protein abundance	concentration: 4mM	0.969 ± 0.013
